{"source": "patent US20080161232A1", "about": "“C5a Receptor Antagonist” (JERINI AG, priority 2005, published 2008)", "biological_target": "T1, human C5aR(CD88) (Homo sapiens, UniProt P21730)", "T1 construct": "expressed in transfected cells; host or cells: rat basophilic leukemia cells (RBL)", "T1 sequence (P21730 1-350)": "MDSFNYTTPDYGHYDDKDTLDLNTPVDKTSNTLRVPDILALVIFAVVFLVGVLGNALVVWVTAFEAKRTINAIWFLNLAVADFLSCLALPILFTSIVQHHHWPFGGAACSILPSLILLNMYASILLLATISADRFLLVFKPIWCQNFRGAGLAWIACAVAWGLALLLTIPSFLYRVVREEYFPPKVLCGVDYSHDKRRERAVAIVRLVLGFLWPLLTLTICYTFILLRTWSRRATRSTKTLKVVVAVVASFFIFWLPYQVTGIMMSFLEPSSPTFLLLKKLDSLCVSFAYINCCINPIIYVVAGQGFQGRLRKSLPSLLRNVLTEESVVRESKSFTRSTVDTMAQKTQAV", "assay": "Determination of the IC50 value in an enzyme release assay (functional assay, antagonistic activity)", "type": "cell-based", "key": {"[1]": {"conditions": "IC50 group in enzyme release assay, RBL cells expressing human C5aR(CD88), read-out: activity (group)"}}, "note": "Like-named read-outs stand apart in the source and are kept apart here. Not every detail of the peptide structures is certain; ends, links or a residue may be inferred. For at least one compound, name, drawing or mass did not settle the structure. Starred links: 1 amine or outer side, 2 acyl side, 3 side chain; linkers in the order of their positions; H or OH if unused. Non-standard residues stand in square brackets, D forms with d. Residues, ends and D or L forms follow the SMILES beside them. *: point of attachment. Phe(3,4-Cl2) = N[C@@H](Cc1ccc(Cl)c(Cl)c1)C(=O)O; X12 = CN(C)C(=NCCC[C@H](N[*:1])C(=O)[*:2])N(C)C; 2Nal = N[C@@H](Cc1ccc2ccccc2c1)C(=O)O; Bta = N[C@@H](Cc1csc2ccccc12)C(=O)O; dCha = N[C@H](CC1CCCCC1)C(=O)O; Orn = NCCC[C@H](N)C(=O)O; Aze = O=C(O)[C@@H]1CCN1; Fluoroacetyl = O=C(CF)*"}
{"compound": "CC(=O)N[C@@H](Cc1ccccc1)C(=O)N[C@@H](CCCN)C(=O)N1CCC[C@H]1C(=O)N[C@H](CC1CCCCC1)C(=O)N[C@@H](Cc1csc2ccccc12)C(=O)N[C@@H](Cc1ccc(Cl)c(Cl)c1)C(N)=O", "note": "[Compound 252, Ac-Phe-Orn-Pro-cha-Bta-Eaa-NH2] (Ac-F[Orn]P[dCha][Bta][Phe(3,4-Cl2)]-NH2)", "values": [{"measurement": "IC50", "setting": "[1]", "result": "50 to 200", "unit": "nM"}]}
{"compound": "CC(=O)N[C@@H](Cc1ccccc1)C(=O)N[C@@H](CCCN)C(=O)N1CCC[C@H]1C(=O)N[C@H](CC1CCCCC1)C(=O)N[C@@H](Cc1csc2ccccc12)C(=O)N[C@@H](Cc1ccc2ccccc2c1)C(N)=O", "note": "[Compound 53, Ac-Phe-Orn-Pro-cha-Bta-2Ni—NH2] (Ac-F[Orn]P[dCha][Bta][2Nal]-NH2)", "values": [{"measurement": "IC50", "setting": "[1]", "result": "20 to 50", "unit": "nM"}]}
{"compound": "CN(C)C(=NCCC[C@H](NC(=O)[C@H](Cc1ccccc1)NC(=O)CF)C(=O)N1CC[C@H]1C(=O)N[C@H](CC1CCCCC1)C(=O)N[C@@H](Cc1csc2ccccc12)C(=O)N[C@@H](Cc1ccccc1)C(N)=O)N(C)C", "note": "[Compound 320, FAc-Phe-Fib-Aze-cha-Bta-Phe-NH2] (Fluoroacetyl-F[X12][Aze][dCha][Bta]F-NH2)", "values": [{"measurement": "IC50", "setting": "read-out: activity (group), RBL cells expressing human C5aR(CD88)", "result": "50 to 200", "unit": "nM"}]}
